Experimental data reported in US20150259430A1 (MAB DISCOVERY, published 2015).
No constants are given. Whether binding was seen depends on the method and setting.

B1: Antibody 6 (antibody, V domains shown)
VH: QSVEESGGRLVTPGTPLTLTCTVSGFSLSSYTMGWVRQAPGKGLEYIGIINTGGYTYYASWAKGRFTISRTSTTVDLSMTSLTTEDTATYFCARVYPGSSCDLWGQGTLVTVSS
VL: DVVMTQTPASVSEPVGGTVTIKCQASQSISSSYLSWYQQKPGQPPKLLIYRASTLESGVPSRFKGSGSGTEFTLTISDLECADAATYYCQCTDYAGSYVGGAFGGGTEVVVK
notes: rabbit IgG in B-cell supernatant
B2: Antibody 9 (antibody, V domains shown)
VH: QEQLEESGEGLVKPGTPLTLTCTASGFSLSSGDMSWVRQAPGKGLEWIGTIGVDGSTDYANWAEGRFTISRTSTTVDLKMTSPTTEDTATYFCARGLFDDYTFNLWGQGTLVTVSS
VL: AYDMTQTPASVEVAVGGTVTIKCQASQNIYTYLSWYQQKPGQPPKLLIYKTSTLASGVPSRFSGSGSGTEYTLTVSGVQCDDAATYYCQQGYTTSSNVATPFGGGTEVVVK
notes: as for B1
B3: Antibody 15 (antibody, V domains shown)
VH: QSVEESGGRLVTPGTPLTLTCTVSGFSLNSHAMSWVRQAPGKGLEWIGIISSSGSAWYATWVKGRFTISKTSTTVDLKMTSLTTEDTATYFCARDSAMVPSNFNLWGQGTLVTVSS
VL: AIEMTQSPPSLSASVGETVRIRCLASEFLFNAVSWYQQKPGKPPTLLISGASNLESGVPPRFSGSGSGTDYTLTIGGVQAEDVATYYCLGDFSGGADLTFGAGTKVEIK
notes: as for B1
B4: Antibody 18 (antibody, V domains shown)
VH: QSVEESGGRLVTPGTPLTLTCTVSGFSLSTYWMSWVRQAPGKGLEYIGFINTGGNAYYASWAKGRFTISKTSTSVDLKITSPTTEDTATYFCAGAYVGDVGDGYALTLWGQGTLVTVSS
VL: DVVMTQTPASVSEPVGGTVTIKCQASQSIGNKLAWYQQVPGQPPKLLIYSASPLASGVSSRFKGSRSGTEYTLTISDLECADAATYYCQCTYYGSSGNAFGGGTEVVVK
notes: as for B1
B5: Antibody 20 (antibody, V domains shown)
VH: QSLEESGGGLVQPEGSLTLTCTASGLDASSNCWVCWVRQAPGKGLEWIACIYAIGSGVTYYASWVNGRFSISKTSSTTVTLQMTSLTVADTATYLCARVLNGVGYIDLWGPGTLVTVSS
VL: DIVMTQTPSSVEAAVGGTVTIKCQASQSVYNNNWLAWYQQIPGQPPKLLIYESSTLASGVPSRFKGSGSGTQFTLTISDVQCDDAAMYYCQTYYYSSSRTYAFGGGTEVVVK
notes: as for B1
B6: Antibody 21 (antibody, V domains shown)
VH: QEHLEESGGGLVKPPGSLTLTCTASGFSFSSTYYICWVRQAPGKGLEWIGCIYAGSGTTYYASWAKGRFTISKTSSTTVTLQMASLTAADTATYFCARSSDSWTYGMDLWGPGTLVTVSS
VL: DIVMTQTPASVSEPVGGTVTIKCQASQSISSYLAWYQQKPGQPPKRLIYKASTLASGVPSRFKGSGSGTDFTLTISDLECADAATYYCQCTYGNTGSNFFYGFGGGTEVVVK
notes: as for B1
B7: Antibody 34 (antibody, V domains shown)
VH: QEQLVESGGGLVQPEGSLTLTCKASGFSFSSGYYMCWVRQAPGKGLEWIACIYADSSESTYYASWAKGRFTISKTSSTTVTLQVTSLTAADTATYFCARWGTVAGYSTFNLWGPGTLVTVSS
VL: DVVMTQTPASVSEPVGGTVTIKCQASQSISTALAWYQQKPGQPPKLLIYFTSTLASGVSSRFKGSGSGAEFTLTISDLECADAATYYCQGYYYVTNFPFGGGTEVVVK
notes: as for B1
B8: Antibody 45 (antibody, V domains shown)
VH: QSVEESGGRLVTPGTPLTLTCTVSGFSLSSYAMTWVRQAPGKGLEWIGIIDHSRATYYANWAKGRFTISKTSSTTVDLKVTSLTTEDTATYFCARFFNPGGSGYLRLWGQGTLVTVSS
VL: DVVMTQTPASVSEPVGGTVTIKCQASQIISNWLAWYQQKPGQPPKLLIYGASILASGVPSRFKASRSGTDYTLTIGDLECADAATYYCQCPDYSDTSLGSFGGGTEVVVR
notes: as for B1
B9: Antibody 68 (antibody, V domains shown)
VH: QSVEESGGRLVTPGTPLTLTCTVSGFSLSTYSMSWVRQAPGKGLEWIGTIAISGTTYYASWAKGRFTISKSSTTVDLKISSPTTEDTATYFCARYVSDLIGTNLWGPGTLVTVSS
VL: DVVMTQTPASVSEPVGGTVTIKCQASQSIGSNLAWHQQKPGQPPKLLIYAASNLASGVSSRFKGSRSGTEYTLTISAVQCDDAATYYCQYTYYGSSVVIGTFGGGTEVVVK
notes: as for B1
B10: Antibody 72 (antibody, V domains shown)
VH: QSLEESGGRLVTPGTLLTLTCTASGIDLSGHAMAWVRQAPGKGLEWIGIIYDNGITNYPTWAKGRFTISKTSTTVELKFTSPTTEDTATYFCARDTGNGALRLTLWGPGTLVTVSS
VL: DIVMTQTPSPVSAAVGGTVTIKCQASQSIGSWLSWYQQKPGQRPKLLIYGASTLESGVPSRFKGSGSGTEFTLTISDLECADAATYYCHCTYGSVSGNAFGGGTEVVVK
notes: as for B1
B11: Antibody 11 (antibody, V domains shown)
VH: QSVEESGGRLVTPGTPLTLTCTVSGFSLRSYAMSWVRQAPGKGLEWVGIISTSGDTYYASWAKGRFTISKTSTTVDLKITSPTTEDTATYFCARYSYDDYGDYVRVGMDLWGPGTLVTVSS
VL: AAVLTQTPSPVSAAVGGTVSISCQSSKSVYYNNWLSWFQQKPGQRPKLLIYGASTLASGVPSRFKGSGSETQFTLTISDVQCDDAATYYCAGGYTSSSDTVSFGGGTEVVVK
notes: as for B1
B12: Antibody 74 (antibody, V domains shown)
VH: QSVEESGGRLVTPGTPLTLTCTVSGFSLSSGYMNWVRQAPGKGLEWIGRIHTLSGSIWYASWVKGRFTISKTSTTVDLKMTSLTTKDTATYFCARGNAGGSIEYGMDLWGPGTLVTVSA
VL: AYDMTQTPASVEAAVGGTVTIKCQASESITNYLNWYQQKPGQPPKLLIYSASTLASGVPSRFKGSGSGTQFTLTISGVECADAGTYYCQQGYSLINVGDIFGGGTEVVVR
notes: as for B1
B13: Antibody 77 (antibody, V domains shown)
VH: QSVEESGGRLVTPGTPLTLTCTISGFSLNNYWMSWVRQAPGKGLEWIGIISSSDTTWYASWAKGRFTISRTSTTVDLKMTSLTTEDTATYFCARDRGDVGYSDLDLWGPGTLVTVSS
VL: AYDMTQTPASVEVAVGGTVTIKCQASQSISSYLSWYQQKPGQPPKLLIYKASTLASGVSSRFSGSGSGTEFTLTISGVQCDDAATYYCQQGYSESNLDNAFGGGTEVVVK
notes: as for B1
B14: Antibody 78 (antibody, V domains shown)
VH: QSVEESGGRLVTPGTPLTLTCTVSGIDLSSYWMIWVRQAPGEGLEYIGFISNGGGAYYANWTKGRFTISRTSTTVDLKMTSLTTEDTATYFCARAYTTVTIGGFDLWGPGTLVTVSS
VL: AYDMTQTPASVEVAVGGTVTINCQASQNIYNGLAWYQQKPGQPPKLLIYLASTLASGVPSRFKGSGSGTEFTLTISDLECADAATYYCQQGFSVNNVGNVFGGGTEMVVK
notes: as for B1
B15: Antibody 88 (antibody, V domains shown)
VH: QSVEESGGRLVTPGTPLTLTCTVSGFPLSSYVMSWVRQAPGTGLEYIGIVGIGGSAYYASWAKGRFTISRTSTTVDLKMTSLTPEDTATYFCARGAGGNFYSPLDLWGQGTLVTVSS
VL: DIVMTQTASPLSGAVGGTVTIKCQASQSISNELAWYQQKPGQRPKLLIYLASTLASGVPSRFKGSGSGTDFTLTISDLECADAATYYCQSYSDTSSISYGYGFGGGTEVVVK
notes: as for B1

Target: recombinant Fc chimeric conjugate of human IL12 Rβ1 (human) (UniProt P42701)
Experiment: ELISA, coated antigen

Binder	binding
B1	no binding (tested: OD 0.1 or lower)
B2	no binding (tested: OD 0.1 or lower)
B3	no binding (tested: OD 0.1 or lower)
B4	no binding (tested: OD 0.1 or lower)
B5	no binding (tested: OD 0.1 or lower)
B6	no binding (tested: OD 0.1 or lower)
B7	no binding (tested: OD 0.1 or lower)
B8	no binding (tested: OD 0.1 or lower)
B9	no binding (tested: OD 0.1 or lower)
B10	no binding (tested: OD 0.1 or lower)
B11	no binding (tested: OD 0.1 or lower)
B12	no binding (tested: OD 0.1 or lower)
B13	no binding (tested: OD 0.1 or lower)
B14	no binding (tested: OD 0.1 or lower)
B15	no binding (tested: OD 0.1 or lower)
